{"sequences": {"note": "Sequences of proteins named here, by UniProt entry; tags and fusion partners are left off.", "UniProt Q8BKJ9": "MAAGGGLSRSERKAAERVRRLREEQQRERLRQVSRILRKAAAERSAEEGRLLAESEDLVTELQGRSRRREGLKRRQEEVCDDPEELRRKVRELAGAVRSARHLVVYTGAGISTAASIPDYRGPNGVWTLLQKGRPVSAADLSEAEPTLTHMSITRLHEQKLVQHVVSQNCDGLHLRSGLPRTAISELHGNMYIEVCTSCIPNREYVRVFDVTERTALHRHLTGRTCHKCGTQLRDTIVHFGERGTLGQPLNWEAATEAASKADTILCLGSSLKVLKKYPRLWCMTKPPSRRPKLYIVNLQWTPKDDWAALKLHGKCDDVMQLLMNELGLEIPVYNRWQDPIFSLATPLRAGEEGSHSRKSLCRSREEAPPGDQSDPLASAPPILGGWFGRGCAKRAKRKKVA", "UniProt Q5SF07": "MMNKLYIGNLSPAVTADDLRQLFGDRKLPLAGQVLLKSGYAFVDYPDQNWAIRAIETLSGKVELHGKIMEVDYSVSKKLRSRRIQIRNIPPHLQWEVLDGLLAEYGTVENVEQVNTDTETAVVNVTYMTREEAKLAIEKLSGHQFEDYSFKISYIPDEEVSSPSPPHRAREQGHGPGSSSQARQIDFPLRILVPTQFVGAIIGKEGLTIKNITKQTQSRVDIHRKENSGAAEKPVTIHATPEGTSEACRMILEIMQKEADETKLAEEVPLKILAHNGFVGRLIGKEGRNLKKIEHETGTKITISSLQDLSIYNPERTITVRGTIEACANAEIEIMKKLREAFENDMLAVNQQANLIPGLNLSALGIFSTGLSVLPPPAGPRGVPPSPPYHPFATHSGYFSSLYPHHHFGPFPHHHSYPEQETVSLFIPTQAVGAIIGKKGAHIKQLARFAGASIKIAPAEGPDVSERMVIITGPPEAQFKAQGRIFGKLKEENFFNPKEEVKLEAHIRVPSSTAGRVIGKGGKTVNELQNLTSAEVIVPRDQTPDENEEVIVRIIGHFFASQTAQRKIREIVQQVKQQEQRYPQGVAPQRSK"}, "source": "paper PMC9744749", "key": {"FLAG-SIRT7": {"biological_target": "FLAG-SIRT7 (UniProt Q8BKJ9)", "assay": "co-IP; HEK293T cells co-transfected for 24 h; lysis buffer 20 mM Tris-HCl pH 7.4, 150 mM NaCl, 2.5 mM MgCl2, 0.5% NP-40, 10 mM nicotinamide, 1 uM TSA; immunoprecipitation with anti-FLAG antibody beads overnight at 4 °C; western blotting"}, "Halo-SIRT7": {"biological_target": "Halo-SIRT7 (UniProt Q8BKJ9)", "assay": "pull-down; Halo-SIRT7 immobilised on HaloLink Resin, incubated with lysates of transfected HEK293T cells in pull-down buffer (10 mM Tris-HCl pH 7.4, 150 mM NaCl, 0.5% NP-40, 10 mM nicotinamide, 1 uM TSA) at 4 °C overnight; five washes; western blotting; only the target purified"}}, "note": "No constants are given. Whether binding was seen depends on the method and setting. Binding seen in cells or lysates may run through a third protein. Some results given as binding are weak or reduced against the parent protein; the word gives no strength.", "data": [{"substance": "3×HA-IMP2 (from UniProt Q5SF07 1-592)", "values": [{"measurement": "binding", "setting": "FLAG-SIRT7", "result": "binds"}, {"measurement": "binding", "setting": "Halo-SIRT7", "result": "binds"}]}]}
